Assay results as given in patent US20030176373.
For some assays here: A negative result means that nothing was seen under these conditions. For some assays here: A weaker result is weaker than the reference pair of the same experiment.

Chains of the proteins cited; added tags and fusions are not shown. A line that says so, or that is headed by a name, gives the form on record, which may keep a tag or linker.
Ku70/Ku80 heterodimer (Ku antigen) (Mus musculus), one chain, as listed by the source, chain 1 of 2: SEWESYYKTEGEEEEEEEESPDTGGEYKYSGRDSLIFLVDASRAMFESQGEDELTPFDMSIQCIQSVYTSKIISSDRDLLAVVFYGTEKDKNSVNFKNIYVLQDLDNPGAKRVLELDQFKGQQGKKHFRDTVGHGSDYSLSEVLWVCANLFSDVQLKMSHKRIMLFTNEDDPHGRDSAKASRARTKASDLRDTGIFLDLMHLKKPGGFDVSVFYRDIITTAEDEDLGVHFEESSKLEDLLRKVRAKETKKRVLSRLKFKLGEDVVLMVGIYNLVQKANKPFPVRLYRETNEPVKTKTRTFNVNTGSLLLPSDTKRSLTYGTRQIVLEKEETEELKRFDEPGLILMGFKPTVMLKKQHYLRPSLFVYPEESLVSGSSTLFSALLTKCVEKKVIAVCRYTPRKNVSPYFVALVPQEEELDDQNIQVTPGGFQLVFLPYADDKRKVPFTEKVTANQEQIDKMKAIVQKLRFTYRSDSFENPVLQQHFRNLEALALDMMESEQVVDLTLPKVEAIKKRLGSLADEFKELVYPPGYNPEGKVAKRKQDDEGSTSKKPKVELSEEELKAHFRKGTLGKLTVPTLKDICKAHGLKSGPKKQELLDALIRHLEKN
Ku70/Ku80 heterodimer (Ku antigen) (Mus musculus), one chain, as listed by the source, chain 2 of 2: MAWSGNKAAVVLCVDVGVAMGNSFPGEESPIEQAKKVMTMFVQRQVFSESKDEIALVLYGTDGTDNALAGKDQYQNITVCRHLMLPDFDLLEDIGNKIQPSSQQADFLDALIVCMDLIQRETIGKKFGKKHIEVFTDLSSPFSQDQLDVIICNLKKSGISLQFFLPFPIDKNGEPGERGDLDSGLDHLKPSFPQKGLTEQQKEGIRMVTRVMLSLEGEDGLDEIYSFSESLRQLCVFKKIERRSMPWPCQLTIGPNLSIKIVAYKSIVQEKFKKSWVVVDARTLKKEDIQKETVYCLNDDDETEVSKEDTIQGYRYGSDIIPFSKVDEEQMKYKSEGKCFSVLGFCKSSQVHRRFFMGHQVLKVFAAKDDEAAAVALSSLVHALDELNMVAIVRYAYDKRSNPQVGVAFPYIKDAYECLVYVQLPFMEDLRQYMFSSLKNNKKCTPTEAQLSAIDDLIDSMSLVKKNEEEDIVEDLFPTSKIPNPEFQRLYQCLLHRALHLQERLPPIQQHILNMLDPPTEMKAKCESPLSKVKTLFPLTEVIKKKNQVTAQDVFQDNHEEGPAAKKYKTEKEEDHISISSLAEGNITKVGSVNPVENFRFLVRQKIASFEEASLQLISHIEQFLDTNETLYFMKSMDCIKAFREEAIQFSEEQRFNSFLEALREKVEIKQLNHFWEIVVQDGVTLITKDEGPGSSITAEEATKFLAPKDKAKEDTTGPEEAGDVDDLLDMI

How the values were obtained:
[1] = test system: Ku70/Ku80 heterodimer (Ku antigen) (Mus musculus); assay: pull-down; conditions: Sepharose affinity column, KCl gradient elution 50 mM to 1.55 M; purified native protein
[2] = test system: Ku70/Ku80 heterodimer (Ku antigen) (Mus musculus); assay: competition with a labelled probe; conditions: no significant competition at 0.1-0.4 ug; purified native protein; variant of ds-ISS-ODN
[3] = test system: DNA-PK (DNA-PKcs/Ku70/Ku80); assay: activity assay; conditions: purified native protein, protein details: affinity-purified, Promega, single-stranded DNA
[4] = test system: Ku70/Ku80 heterodimer (Ku antigen) (Mus musculus); assay: EMSA; conditions: anti-Ku supershift assay; 4 C; unlabeled ds-ISS competes; purified native protein; label: 32P
[5] = PS, no substantial DNA-PK activation, variant of ISS-ODN (ps-ss)

**Q.** Does “TGACTGAACGTTCGAGATGA (double strand) [ds-ISS-ODN affinity column ODN]” bind [1]?
**A.** binds

**Q.** Does “TGACTGTGAACCTTAGAGATGA (double strand) [ds-M-ODN]” bind [2]?
**A.** no binding

**Q.** Which “activity on this sequence” value [3, 5] does the source give for “TGACTGTGAACCTTAGAGATGA [Control-ODN (1) CpC (ps-ss)]” here?
**A.** not active

**Q.** “TGACTGTGAACGTTAGAGATGA [ISS-ODN (ps-ss)]” was tested. Which “activity on this sequence” value ([3]; PS, stimulates GST-p53(1-70) phosphorylation, 0.1-1 ng/reaction, 5 mM MgCl2, 30 C, which ISS-ODN (SEQ 1 or 10) not stated) did it give?
**A.** active

**Q.** Which “activity on this sequence” value ([3]; PS, 5mC at C of CpG (position 11), DNA-PK kinase activation weaker than unmethylated, variant of ISS-ODN (ps-ss)) does the source give for “TGACTGTGAACGTTAGAGATGA [methylated ISS-ODN (ps-ss)]” here?
**A.** less active

**Q.** For “TGACTGTGAACGTTAGAGATGA [methylated po-ISS-ODN]”, which “activity on this sequence” value ([3]; 5mC at C of CpG (position 11), weaker than unmethylated po-ISS-ODN, variant of po-ISS-ODN) is on record?
**A.** less active

**Q.** TGACTGTGAACGTTAGAGATGA [po-ISS-ODN] was tested. Which “activity on this sequence” value ([3]; weak activation only at 50-100 ng/reaction, variant of ISS-ODN (ps-ss)) did it give?
**A.** less active

**Q.** Does “TGACTGTGAACGTTCGAGATGA (double strand) [ds-ISS-ODN]” bind [4]?
**A.** binds

**Q.** With “TGACTGTGAAGGTTAGAGATGA [M-ODN GpG (ps-ss)]” as the sequence, how does the “activity on this sequence” value [3, 5] read?
**A.** not active

**Q.** For “TGACTGTGAATATTAGAGATGA [Control-ODN (3) ApT (ps-ss)]”, which “activity on this sequence” value [3, 5] is on record?
**A.** not active

**Q.** For “TGACTGTGTTCCTTAGAGATGA [Control-ODN (2) TTCC (ps-ss)]”, which “activity on this sequence” value [3, 5] is on record?
**A.** not active
